# Results taken from the supplement of paper PMC8728848.
# This is one part of the list.
# How the values were obtained:
# Experiment in all cases: glycan array binding signal (z-score within array); higher = stronger binding
# Details in all cases: glycan notation: IUPAC condensed, linker removed
# [1] = target: GalNAc(b1-3)Gal(a1-6)Gal(b1-4)Glc
# Procedure, shortened: (§1)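 Glycan array binding is given as a within-array Z-score, which can be read as non-binding when negative. The arrays, 3228 of them, came from the Consortium for Functional Glycomics database and were retained only where the protein sequence was available. Z-scores were averaged across arrays of the same protein sequence at different concentrations or buffers and across linkers.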
# GalNAc(b1-3)GalNAc = target: GalNAc(b1-3)GalNAc
# Procedure, shortened: as §1
# GalNAc(b1-3)GlcNAc = target: GalNAc(b1-3)GlcNAc
# Procedure, shortened: as §1
# GalNAc(b1-4)Gal(b1-4)Glc = target: GalNAc(b1-4)Gal(b1-4)Glc
# Procedure, shortened: as §1
# GalNAc(b1-4)GlcNAc = target: GalNAc(b1-4)GlcNAc
# Procedure, shortened: as §1
# [2] = target: GalNAc(b1-4)GlcNAc(b1-2)Man
# Procedure, shortened: as §1
# [3] = target: GalNAc(b1-4)GlcNAc(b1-2)Man(a1-3)[GalNAc(b1-4)GlcNAc(b1-2)Man(a1-6)]Man(b1-4)GlcNAc(b1-4)GlcNAc
# Procedure, shortened: as §1
# [4] = target: GalNAc(b1-4)GlcNAc(b1-3)GalNAc(b1-4)GlcNAc
# Procedure, shortened: as §1
# GalNAc(b1-4)GlcNAc6S = target: GalNAc(b1-4)GlcNAc6S
# Procedure, shortened: as §1
# GalNAc(b1-6)GalNAc = target: GalNAc(b1-6)GalNAc
# Procedure, shortened: as §1
# GalNAc3S(b1-4)GlcNAc = target: GalNAc3S(b1-4)GlcNAc
# Procedure, shortened: as §1
# GalNAc3S(b1-4)GlcNAc3S = target: GalNAc3S(b1-4)GlcNAc3S
# Procedure, shortened: as §1
# [5] = target: GalNAc3S(b1-4)[Fuc(a1-3)]GlcNAc
# Procedure, shortened: as §1
# GalNAc4S6S(b1-4)GlcNAc = target: GalNAc4S6S(b1-4)GlcNAc
# Procedure, shortened: as §1
# GalNAc6S(b1-4)GlcNAc = target: GalNAc6S(b1-4)GlcNAc
# Procedure, shortened: as §1
# Glc(a1-4)Glc = target: Glc(a1-4)Glc
# Procedure, shortened: as §1
# [6] = target: Glc(a1-4)Glc(a1-4)Glc(a1-4)Glc
# Procedure, shortened: as §1
# Glc(a1-6)Glc(a1-6)Glc = target: Glc(a1-6)Glc(a1-6)Glc
# Procedure, shortened: as §1
# [7] = target: Glc(a1-6)Glc(a1-6)Glc(a1-6)Glc
# Procedure, shortened: as §1
# Glc(b1-4)Glc = target: Glc(b1-4)Glc
# Procedure, shortened: as §1
# Glc(b1-6)Glc = target: Glc(b1-6)Glc
# Procedure, shortened: as §1
# GlcA(b1-3)Gal = target: GlcA(b1-3)Gal
# Procedure, shortened: as §1
# GlcA(b1-3)GlcNAc = target: GlcA(b1-3)GlcNAc
# Procedure, shortened: as §1
# GlcA(b1-6)Gal = target: GlcA(b1-6)Gal
# Procedure, shortened: as §1
# [8] = target: GlcA3S(b1-3)Gal(b1-4)GlcNAc(b1-2)Man
# Procedure, shortened: as §1
# [9] = target: GlcA3S(b1-3)Gal(b1-4)GlcNAc(b1-3)Gal(b1-4)Glc
# Procedure, shortened: as §1
# [10] = target: GlcNAc(a1-3)Gal(b1-4)GlcNAc
# Procedure, shortened: as §1
# [11] = target: GlcNAc(a1-4)Gal(b1-3)GlcNAc
# Procedure, shortened: as §1
# [12] = target: GlcNAc(a1-4)Gal(b1-4)GalNAc
# Procedure, shortened: as §1
# [13] = target: GlcNAc(a1-4)Gal(b1-4)GlcNAc
# Procedure, shortened: as §1
# [14] = target: GlcNAc(a1-4)Gal(b1-4)GlcNAc(b1-3)Gal(b1-4)Glc
# Procedure, shortened: as §1
# [15] = target: GlcNAc(a1-4)Gal(b1-4)GlcNAc(b1-3)Gal(b1-4)GlcNAc
# Procedure, shortened: as §1
# [16] = target: GlcNAc(a1-4)Gal(b1-4)GlcNAc(b1-3)Gal(b1-4)GlcNAc(b1-3)Gal(b1-4)GlcNAc
# Procedure, shortened: as §1
# [17] = target: GlcNAc(a1-4)Gal(b1-4)GlcNAc(b1-3)Gal(b1-4)[Fuc(a1-3)]GlcNAc(b1-3)Gal(b1-4)[Fuc(a1-3)]GlcNAc
# Procedure, shortened: as §1
# [18] = target: GlcNAc(a1-6)Gal(b1-4)GlcNAc
# Procedure, shortened: as §1
# [19] = target: GlcNAc(b1-2)Gal(b1-3)GalNAc
# Procedure, shortened: as §1
# [20] = target: GlcNAc(b1-2)Man(a1-3)[GlcNAc(b1-2)Man(a1-6)]Man(b1-4)GlcNAc(b1-4)GlcNAc
# Procedure, shortened: as §1
# [21] = target: GlcNAc(b1-2)Man(a1-3)[GlcNAc(b1-2)Man(a1-6)]Man(b1-4)GlcNAc(b1-4)[Fuc(a1-6)]GlcNAc
# Procedure, shortened: as §1
# [22] = target: GlcNAc(b1-2)Man(a1-3)[GlcNAc(b1-4)][GlcNAc(b1-2)Man(a1-6)]Man(b1-4)GlcNAc(b1-4)GlcNAc
# Procedure, shortened: as §1
# [23] = target: GlcNAc(b1-2)Man(a1-3)[GlcNAc(b1-4)][GlcNAc(b1-2)Man(a1-6)]Man(b1-4)GlcNAc(b1-4)[Fuc(a1-6)]GlcNAc
# Procedure, shortened: as §1
# [24] = target: GlcNAc(b1-2)[GlcNAc(b1-4)]Man(a1-3)[GlcNAc(b1-2)Man(a1-6)]Man(b1-4)GlcNAc(b1-4)GlcNAc
# Procedure, shortened: as §1
# [25] = target: GlcNAc(b1-2)[GlcNAc(b1-4)]Man(a1-3)[GlcNAc(b1-4)][GlcNAc(b1-2)Man(a1-6)]Man(b1-4)GlcNAc(b1-4)GlcNAc
# Procedure, shortened: as §1
# [26] = target: GlcNAc(b1-2)[GlcNAc(b1-4)]Man(a1-3)[GlcNAc(b1-4)][GlcNAc(b1-2)[GlcNAc(b1-6)]Man(a1-6)]Man(b1-4)GlcNAc(b1-4)GlcNAc
# Procedure, shortened: as §1
# [27] = target: GlcNAc(b1-2)[GlcNAc(b1-4)]Man(a1-3)[GlcNAc(b1-4)][GlcNAc(b1-2)[GlcNAc(b1-6)]Man(a1-6)]Man(b1-4)GlcNAc(b1-4)[Fuc(a1-6)]GlcNAc
# Procedure, shortened: as §1
# [28] = target: GlcNAc(b1-2)[GlcNAc(b1-6)]Man(a1-6)[GlcNAc(b1-2)Man(a1-3)]Man(b1-4)GlcNAc(b1-4)GlcNAc
# Procedure, shortened: as §1
binder,measurement,setting,value
GST Gap3 (Streptococcus parasanguinis) (protein) MTKQLISEIYWNEIRKGENYLYGSQIKFQEDLVNFYNPQLASGKPIVTFKSRTNYQGDRHSPDLPILIQGNRYLLEYQIDAVPANSFFLQLDFFNRQAEQIESIVLRNSGESFIFPKDTFTYTLTLMSAGCQSVTYQKFMIYDINDEEKKNHIVENRYLRELLPKDLDLVKNLIEYI,glycan array binding signal (z-score),[1],0.006
same,glycan array binding signal (z-score),GalNAc(b1-3)GalNAc,-0.404
same,glycan array binding signal (z-score),GalNAc(b1-3)GlcNAc,-0.581
same,glycan array binding signal (z-score),GalNAc(b1-4)Gal(b1-4)Glc,-0.498
same,glycan array binding signal (z-score),GalNAc(b1-4)GlcNAc,0.123
same,glycan array binding signal (z-score),[2],-0.553
same,glycan array binding signal (z-score),[3],0.051
same,glycan array binding signal (z-score),[4],-0.032
same,glycan array binding signal (z-score),GalNAc(b1-4)GlcNAc6S,1.03
same,glycan array binding signal (z-score),GalNAc(b1-6)GalNAc,-0.263
same,glycan array binding signal (z-score),GalNAc3S(b1-4)GlcNAc,-0.688
same,glycan array binding signal (z-score),GalNAc3S(b1-4)GlcNAc3S,-0.214
same,glycan array binding signal (z-score),[5],0.824
same,glycan array binding signal (z-score),GalNAc4S6S(b1-4)GlcNAc,-0.267
same,glycan array binding signal (z-score),GalNAc6S(b1-4)GlcNAc,0.428
same,glycan array binding signal (z-score),Glc(a1-4)Glc,3.14
same,glycan array binding signal (z-score),[6],-0.61
same,glycan array binding signal (z-score),Glc(a1-6)Glc(a1-6)Glc,0.005
same,glycan array binding signal (z-score),[7],0.214
same,glycan array binding signal (z-score),Glc(b1-4)Glc,-0.381
same,glycan array binding signal (z-score),Glc(b1-6)Glc,0.135
same,glycan array binding signal (z-score),GlcA(b1-3)Gal,-0.077
same,glycan array binding signal (z-score),GlcA(b1-3)GlcNAc,1.05
same,glycan array binding signal (z-score),GlcA(b1-6)Gal,0.658
same,glycan array binding signal (z-score),[8],-0.249
same,glycan array binding signal (z-score),[9],1.95
same,glycan array binding signal (z-score),[10],-0.406
same,glycan array binding signal (z-score),[11],-0.334
same,glycan array binding signal (z-score),[12],0.129
same,glycan array binding signal (z-score),[13],-0.311
same,glycan array binding signal (z-score),[14],-0.26
same,glycan array binding signal (z-score),[15],0.075
same,glycan array binding signal (z-score),[16],-0.302
same,glycan array binding signal (z-score),[17],2.24
same,glycan array binding signal (z-score),[18],0.544
same,glycan array binding signal (z-score),[19],-0.224
same,glycan array binding signal (z-score),[20],-0.297
same,glycan array binding signal (z-score),[21],0.521
same,glycan array binding signal (z-score),[22],-0.45
same,glycan array binding signal (z-score),[23],-0.495
same,glycan array binding signal (z-score),[24],-0.411
same,glycan array binding signal (z-score),[25],0.326
same,glycan array binding signal (z-score),[26],-0.484
same,glycan array binding signal (z-score),[27],-0.513
same,glycan array binding signal (z-score),[28],-0.202

# In a second layout: entries from further up
binder	measurement	setting	value
GST Gap3 (Streptococcus parasanguinis) (protein) MTKQLISEIYWNEIRKGENYLYGSQIKFQEDLVNFYNPQLASGKPIVTFKSRTNYQGDRHSPDLPILIQGNRYLLEYQIDAVPANSFFLQLDFFNRQAEQIESIVLRNSGESFIFPKDTFTYTLTLMSAGCQSVTYQKFMIYDINDEEKKNHIVENRYLRELLPKDLDLVKNLIEYI	glycan array binding signal (z-score)	GlcA(b1-3)GlcNAc	1.05
same	glycan array binding signal (z-score)	GlcA(b1-6)Gal	0.658
same	glycan array binding signal (z-score)	[8]	-0.249
same	glycan array binding signal (z-score)	[9]	1.95
same	glycan array binding signal (z-score)	[10]	-0.406
same	glycan array binding signal (z-score)	[11]	-0.334
same	glycan array binding signal (z-score)	[12]	0.129
same	glycan array binding signal (z-score)	[13]	-0.311
same	glycan array binding signal (z-score)	[14]	-0.26
same	glycan array binding signal (z-score)	[15]	0.075
same	glycan array binding signal (z-score)	[16]	-0.302
same	glycan array binding signal (z-score)	[17]	2.24
